Laboratory results published in patent US7041647B2, “Synthetic peptide having an ionophoric and antimicrobial activity” (Corporacion Para Investigaciones Biologicas, priority 2003, dated 2006).
Entries after “also recorded” stand apart in the source; their conditions may differ. Part of at least one peptide drawing is inferred or uncertain, most often the ends. No end group written: not given here.

What was measured:
[1] = test system: inner membrane of rat liver mitochondria; assay: Mitochondrial swelling in isotonic media (ionophoric activity); assay type: biochemical
Experimental: FIG. 1 Ionophoric activity of P1 in the inner membrane of rat liver mitochondria. The mitochondria at a concentration of 0.5 mg/ml of protein were incubated in the media 125 mM KNO3, 5 mM HEPES-tris, pH 7.4 (Panel A) and 125 mM NH4NO3, 5 mM HEPES-tris, pH 7.4 (Panel B), both media were supplemented with 2.5 μM rotenone and 1 μM oligomycin (RO), added just after the mitochondria. The peptide P1 was added at the following final concentrations: 1.8 μM of P1 (curves a); 0.36 μM of P1 (curves b); 0.18 μM of P1 (curves c); 0.18 μM of P1 plus 2.5 mM of succinate (curves d); 0.12 μM of valinomycin (curve e), and 2 μM of FCCP, (curve f). In Panel C, the permeability of the inner mitochondrial membrane induced by the peptide P1 was evaluated for the following cations: H^+, K^+, Na^+, and Tris^+. By the addition of 0.18 μM of P1 to the mitochondria plus RO in the following media, respectively: 125 mM NH4NO3, 5 mM HEPES-tris, pH 7.4 (curve a); 125 mM KNO3, 5 mM HEPES-tris, pH 7.4, (curve b); 125 mM NaNO3, 5 mM HEPES-tris, pH 7.4, (curve c); and 125 mM Tris-HCl, 5 mM HEPES-tris, pH 7.4, (curve d). Ionophoric activity was not observed when other peptides were tested with mitochondria in the medium 125 mM NH4NO3, 5 mM HEPES-tris, pH 7.4 (peptides P9, P10 and P11)(FIG. 1, Panel D).
Male rats were beheaded, their livers were extracted and placed in 45 ml of a cold solution composed of 210 mM Mannitol, 70 mM Saccharose, 1 mM EGTA, 5 mM HEPES-tris, pH 7.4 (GMSH). The livers were homogenized with an automatic Dounce homogenizer containing a Teflon pestle. The homogenate was centrifuged at 600×g for 10 min at 4° C. (Centrifugal machine Jouan, MR1812). The supernatant was decanted and centrifuged at 10000×g for 10 min at 4° C. The mitochondrial pellet was re-suspended in 30 ml of a cold solution composed of 210 mM Mannitol, 70 mM Saccharose, 20 μM EGTA, 5 mM HEPES-tris, pH 7.4 (MSHG) and centrifuged again at 10000×g for 10 min at 4° C. The final bottom of mitochondria was re-suspended in buffer MSHG at a final concentration of mitochondrial protein of 60–80 mg/ml.
The mitochondria were isolated and prepared as described above. The mitochondria were resuspended at a concentration of mitochondrial protein of 0.5 mg/ml in 1 ml of different isotonic media: 125 mM NH4NO3, 5 mM HEPES-tris, pH 7.4; 125 mM KNO3, 5 mM HEPES-tris, pH 7.4; 125 mM Tris-NO3, 5 mM HEPES-tris, pH 7.4; 125 mM NaNO3, 5 mM HEPES-tris, pH 7.4. The addition of mitochondria was immediately followed by the addition of 2.5 μM rotenone and 1 μM oligomycin (RO). […] The mitochondrial swelling was spectrophotometrically monitored at 540 nm (Turner Spectrophotometer, model SP-850, USA, modified with a magnetic mini-stirrer). The curves were recorded in a graphical recorder (Linseis model L250E, USA), scanned and then processed in the program Adobe Photoshop V5.0.
Ionophoric effect of P1 in the inner rat liver mitochondrial membrane; P1 induces a strong swelling of rat liver mitochondria due to its ionophoric activity. This activity was determined in mitochondria suspended in an isotonic medium composed of 125 mM KNO3, 5 mM HEPES-tris, pH 7.4 (FIG. 1, Panel A), and 125 mM NH4NO3, 5 mM HEPES-tris, pH 7.4 (FIG. 1, Panel B) at different final concentrations of P1 (traces a, b, and c in FIG. 1, Panels A and B). […] The ionophoric activity of P1 was also monitored in other isotonic media: 125 mM Tris-NO3, 5 mM HEPES-tris, pH 7.4; and 125 mM NaNO3, 5 mM HEPES-tris, pH 7.4. […]

[2] = test system: inner membrane of rat liver mitochondria; assay: Effect of proteases over the ionophoric activity in the mitochondria; assay type: biochemical; conditions: for Ionophoric activity after incubation with mitochondria: then fresh mitochondria, NH4NO3 medium

Substance: VAPIAKYLATALAKWALKQGFAKLKS-NH2 (C-terminus assumed) [P1]
- Rate order of mitochondrial swelling by isotonic medium ([1]; 0.18 μM of P1, FIG. 1 Panel C curves a, b, c, d): NH4NO3>KNO3>NaNO3>tris-NO3
- Rate of mitochondrial swelling (slope) ([1]; 0.18 μM of P1, medium 125 mM KNO3, 5 mM HEPES-tris, pH 7.4, FIG. 1 Panel A curve c): 1.6
- Rate of mitochondrial swelling (slope) ([1]; 0.18 μM of P1 plus 2.5 mM of succinate (energized mitochondria), medium 125 mM KNO3, FIG. 1 Panel A curve d): 9.3
- Speed of mitochondrial swelling (slope) ([1]; 0.36 μM of P1, medium 125 mM NH4NO3, 5 mM HEPES-tris, pH 7.4, FIG. 1 Panel B curve b): 2.1
- Order of cation selectivity of ionophoric activity ([1]; mitochondria): H^+>K^+>Na^+>Tris^+
- Ionophoric activity after incubation with mitochondria ([2]; 1.8 μM P1, 2.5 min): shows ionophoric activity
- Ionophoric activity after incubation with mitochondria ([2]; 1.8 μM P1, 10 min): decreases
- Ionophoric activity after incubation with mitochondria ([2]; 1.8 μM P1, 20 min): disappears
- Ionophoric activity after treatment with trypsin ([2]; 1.8 μM of P1 and 10 μg/1 ml of trypsin, 5 min at room temperature): disappeared; also recorded: suppresses its ionophoric activity
